Experimental data published in PMC12670160, “A drug-repurposing screen of FDA- and EMA-approved drugs identifies two NF-κB inhibitors active against eumycetoma” (Journal of Antimicrobial Chemotherapy, 2025).
Counter-ions that a name gives are not always drawn. The whole screen tested about 5,300 compounds, of which about 130 (2.5%) showed an effect of 50% or more. The list shows a part of the results.

Tested on: M. mycetomatis strain mm55
Details: primary screen, metabolic activity vs growth control; 96 h, 2 µM; inhibitor

| SMILES | % viability |
| --- | --- |
| CC(C1=C(CCN(C)C)Cc2ccccc21)c1ccccn1 (stereo not shown) [ONC0004066, dimetindene] | 97.76% |
| CC(C)(C)NCC(O)COc1ccc(NC(=O)NC2CCCCC2)cc1 (stereo not shown) [ONC0003803, talinolol] | 63.39% |
| CC(OC(=O)OC1CCCCC1)OC(=O)C1=C(CSc2nnnn2CCN(C)C)CS[C@@H]2[C@H](NC(=O)Cc3csc(N)n3)C(=O)N12 (stereo partly shown) [ONC0002150, cefotiam hexetil hydrochloride] | 76.82% |
| CCNC(=O)Nc1ccc(-c2nc3c(c(N4CCOC[C@@H]4C)n2)CCN(C2COC2)C3)cc1 [ONC0005017, gdc0349] | 89.46% |
| O=C(O)c1ccccc1NC(=O)C12CC3CC(CC(C3)C1)C2 [ONC0003710, anthranilicacid] | 110.1% |
| CCCN(CCC)S(=O)(=O)c1ccc(C(=O)O)cc1 [ONC0000488, probenecid] | 54.23% |
| CC[C@@]1(O)C(=O)OCc2c1cc1n(c2=O)Cc2cc3ccccc3nc2-1 [ONC0002713, camptothecin] | 62.06% |
| CCN(CCNC(=O)Nc1ccccc1Br)c1cccc(C)c1 [ONC0000709, sb452533] | 78.96% |
| C[C@]12CC[C@@H]3c4ccc(O)cc4CC[C@H]3[C@@H]1CC[C@@H]2O [ONC0000707, estradiol] | 85.31% |
| CCCCCOc1c(OC)ccc2cc(C(=O)NCc3ccc4c(c3)OCO4)c(=O)[nH]c12 [ONC0003561, jte907] | 130% |
| CN(C)CC/C=C1/c2ccccc2Sc2ccc(Cl)cc21 [ONC0002875, chlorprothixene hydrochloride] | 112.7% |
| OC(CN1CCC(Cc2ccc(F)cc2)CC1)c1ccc(Cl)cc1 (stereo not shown) [ONC0000141, eliprodil] | 106.1% |
| CC(=O)[C@H]1CC[C@H]2[C@@H]3CCC4=CC(=O)CC[C@]4(C)[C@H]3CC[C@]12C [ONC0000479, progesterone] | 66.95% |
| CN[C@@H]1[C@@H](O[C@H]2O[C@H](CO)[C@@H](N)[C@H](O)[C@H]2O)O[C@H]2C[C@@H](N)[C@H](O[C@H]3[C@H](O)[C@@H](O)[C@H](N)C[C@@H]3N)O[C@@H]2[C@@H]1O [ONC0004303, apramycin sulfate] | 95.92% |
| O=C(O)CSc1nnc(Br)n1-c1ccc(C2CC2)c2ccccc12 [ONC0002543, lesinurad] | 74.09% |
| CN[C@@H](C)C(=O)N[C@H](C(=O)N1CCC[C@H]1C(=O)N[C@H]1c2ccccc2C[C@H]1OCC#CC#CCO[C@@H]1Cc2ccccc2[C@@H]1NC(=O)[C@@H]1CCCN1C(=O)[C@@H](NC(=O)[C@H](C)NC)C1CCCCC1)C1CCCCC1 [ONC0002200, azd5582] | 64.8% |
| C[C@@H]1O[C@@]2(CS1)CN1CCC2CC1.C[C@H]1O[C@]2(CS1)CN1CCC2CC1.Cl [ONC0002680, cevimeline] | 67.14% |
| Cc1cc(C(=O)N2Cc3cnn(C)c3Nc3ccccc32)ccc1CNC(=O)N1CCC[C@H]1C(=S)N1CCCN(C)CC1 [ONC0002553, tcot39] | 66.2% |
| COc1cc2c(Nc3ccc(Cl)c(Cl)c3F)ncnc2cc1OC[C@@H]1C[C@@H]2CN(C)C[C@@H]2C1 [ONC0000890, tesevatinib] | 76.06% |

A draw from above in order of molecular weight, ascending:

| SMILES | % viability |
| --- | --- |
| CC(C1=C(CCN(C)C)Cc2ccccc21)c1ccccn1 (stereo not shown) [ONC0004066, dimetindene] | 97.76% |
| OC(CN1CCC(Cc2ccc(F)cc2)CC1)c1ccc(Cl)cc1 (stereo not shown) [ONC0000141, eliprodil] | 106.1% |
| CCN(CCNC(=O)Nc1ccccc1Br)c1cccc(C)c1 [ONC0000709, sb452533] | 78.96% |
| CCCCCOc1c(OC)ccc2cc(C(=O)NCc3ccc4c(c3)OCO4)c(=O)[nH]c12 [ONC0003561, jte907] | 130% |
| CCNC(=O)Nc1ccc(-c2nc3c(c(N4CCOC[C@@H]4C)n2)CCN(C2COC2)C3)cc1 [ONC0005017, gdc0349] | 89.46% |
| CN[C@@H]1[C@@H](O[C@H]2O[C@H](CO)[C@@H](N)[C@H](O)[C@H]2O)O[C@H]2C[C@@H](N)[C@H](O[C@H]3[C@H](O)[C@@H](O)[C@H](N)C[C@@H]3N)O[C@@H]2[C@@H]1O [ONC0004303, apramycin sulfate] | 95.92% |
| Cc1cc(C(=O)N2Cc3cnn(C)c3Nc3ccccc32)ccc1CNC(=O)N1CCC[C@H]1C(=S)N1CCCN(C)CC1 [ONC0002553, tcot39] | 66.2% |
| CC(OC(=O)OC1CCCCC1)OC(=O)C1=C(CSc2nnnn2CCN(C)C)CS[C@@H]2[C@H](NC(=O)Cc3csc(N)n3)C(=O)N12 (stereo partly shown) [ONC0002150, cefotiam hexetil hydrochloride] | 76.82% |

(further entries)

| SMILES | % viability |
| --- | --- |
| Cn1c(COc2ccc(CC3SC(=O)NC3=O)cc2)nc2ccccc2c1=O (stereo not shown) [ONC0001763, balaglitazone] | 106% |
| Cc1cc(=O)oc2c(C=O)c(O)ccc12 [ONC0004804, 4ü¾˜¶Œ¼8c] | 66.99% |
| COc1ccc2[nH]c([S+]([O-])Cc3ncc(C)c(OC)c3C)nc2n1 (stereo not shown) [ONC0004125, tenatoprazole] | 105.3% |
| CCOC(=O)CCNc1cc(N2CCc3ccccc3CC2)nc(-c2ccccn2)n1 [ONC0005162, gsk j4 hcl] | 107.7% |
| O=C(O)CCCCC(=O)O [ONC0003733, adipicacid] | 129.5% |
| C=C1CC[C@H](O)C/C1=C/C=C1\CCC[C@]2(C)[C@@H]([C@H](C)CCCC(C)(C)O)CC[C@@H]12 [ONC0004584, calcifediol] | 84.04% |
| O=C1CCC2CCC(=O)N12 [ONC0002137, rolziracetam] | 75.98% |
| CCC(c1ccccc1)c1c(O)c2ccccc2oc1=O (stereo not shown) [ONC0003767, phenprocoumon] | 91.55% |
| O=C(NCCS(=O)(=O)c1ccc(C(F)(F)F)cn1)c1ccc(Cl)cc1 [ONC0004524, gsk3787] | 83.94% |
| CCn1c(=O)n([C@H]2CCCN(c3nccc(-c4cc5ccccc5o4)n3)C2)c2ccccc21 [ONC0001458, tcf2] | 58.53% |
| CC(=O)N[C@@H](CC(C)C)C(=O)O [ONC0000672, acetyllleucine] | 92.2% |
| CC(C)[C@H]1C(=O)N[C@@H](CCCN=C(N)N)C(=O)NCC(=O)N[C@@H](CC(=O)O)C(=O)N[C@H](Cc2ccccc2)C(=O)N1C [ONC0004350, cilengitide trifluoroacetate] | 126.5% |
| CC(C)(C)Sc1c(CC(C)(C)C(=O)O)n(Cc2ccc(Cl)cc2)c2ccc(OCc3ccc4ccccc4n3)cc12 [ONC0000944, mk591 free acid] | 65.52% |
| OC(c1ccccc1)C1CCN(CCc2ccccc2)CC1 (stereo not shown) [ONC0000786, mdl11939] | 80.2% |
| Cc1c[nH]c2ncnc(N3CCC(CN)(C(=O)Nc4cccc(OC(=O)N(C)C)c4)CC3)c12 [ONC0001102, lx7101] | 57.95% |
| CC(=O)c1cnc2ccc(-c3cc(Cl)c(O)c(Cl)c3)nc2c1N[C@H]1CC[C@H](CN(C)C)CC1 [ONC0000872, otssp167 hydrochloride] | 72.3% |
| N#CC(Cc1ccc(O)cc1)c1ccc(O)cc1 (stereo not shown) [ONC0001690, diarylpropionitrile] | 57.89% |
| O=C1NC(=O)[C@@]2(CCOc3ccc(F)cc32)N1 [ONC0001971, sorbinil] | 115% |
